Some entries share one result that the patent states for a list of compounds.
Target: human DHODH (Homo sapiens, UniProt Q02127)
Assay: Inhibition assay of DHODH activity
Format: biochemical
Conditions: recombinant human DHODH; 50 μM decyclo ubichinone, 100 μM dihydroorotate, 60 μM 2,6-dichloroindophenol; pH 8.0, 30° C.

Amino acid sequences for entries named in this document (tags omitted). A change or cut given only in a name is not applied to a line headed by its entry.
UniProt Q02127: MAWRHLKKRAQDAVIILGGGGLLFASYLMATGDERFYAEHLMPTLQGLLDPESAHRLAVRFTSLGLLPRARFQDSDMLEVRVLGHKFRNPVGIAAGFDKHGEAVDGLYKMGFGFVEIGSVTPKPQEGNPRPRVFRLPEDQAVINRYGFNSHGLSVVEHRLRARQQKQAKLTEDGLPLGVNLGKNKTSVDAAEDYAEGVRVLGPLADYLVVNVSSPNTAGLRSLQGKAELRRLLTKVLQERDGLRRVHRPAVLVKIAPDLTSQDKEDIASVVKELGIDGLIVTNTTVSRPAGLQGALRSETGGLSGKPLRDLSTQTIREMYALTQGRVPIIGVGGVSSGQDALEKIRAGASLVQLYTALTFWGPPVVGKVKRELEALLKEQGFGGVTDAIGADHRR

“2-(1′,3′-di-methoxy-3,5-difluoro-biphenyl-4-ylcarbamoyl)-3-hydroxy-cyclopent-1-enecarboxylic acid [Example 9]” gave an IC50 of less than 5 µM.

“2-(1′,3′-di-methoxy-3,5-difluoro-biphenyl-4-ylcarbamoyl)-5-hydroxy-cyclopent-1-enecarboxylic acid [Example 10]” was tested, and the IC50 was less than 5 µM.

Reference: patent US7071355B2, “Compounds as anti-inflammatory, immunomodulatory and anti-proliferatory agents” (4 SC AG, priority 2002, dated 2006)
